Experimental data taken from PMC10653861, “Three small partner proteins facilitate the type VII-dependent secretion of an antibacterial nuclease” (mBio, 2023).
Results are given in words; binding and its absence hold for the method and conditions named. In cells and extracts the contact can be indirect. Binding can be weak; no strength is given.

Chains of the proteins cited; added tags and fusions are not shown. Lines headed by an entry give the natural chain unless they say otherwise; changes in a name come on top. Residues count along the entry.
UniProt Q2G179, residues 1-477: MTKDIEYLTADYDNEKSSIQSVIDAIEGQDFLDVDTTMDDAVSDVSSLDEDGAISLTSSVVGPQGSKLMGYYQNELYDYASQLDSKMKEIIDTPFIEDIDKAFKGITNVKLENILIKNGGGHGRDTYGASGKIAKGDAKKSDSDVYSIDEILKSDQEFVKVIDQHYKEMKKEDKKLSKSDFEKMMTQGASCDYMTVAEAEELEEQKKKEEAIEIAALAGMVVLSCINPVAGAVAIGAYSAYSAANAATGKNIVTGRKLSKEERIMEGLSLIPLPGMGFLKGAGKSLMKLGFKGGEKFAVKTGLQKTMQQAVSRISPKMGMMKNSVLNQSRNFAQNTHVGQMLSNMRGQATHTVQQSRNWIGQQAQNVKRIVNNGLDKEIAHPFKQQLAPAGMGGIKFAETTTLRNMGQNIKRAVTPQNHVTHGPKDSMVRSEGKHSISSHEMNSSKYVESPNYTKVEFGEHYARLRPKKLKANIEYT
UniProt Q2G183: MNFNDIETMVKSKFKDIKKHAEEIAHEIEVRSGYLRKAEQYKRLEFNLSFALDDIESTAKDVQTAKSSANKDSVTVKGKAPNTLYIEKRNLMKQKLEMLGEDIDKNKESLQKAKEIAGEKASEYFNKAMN
UniProt Q2G180: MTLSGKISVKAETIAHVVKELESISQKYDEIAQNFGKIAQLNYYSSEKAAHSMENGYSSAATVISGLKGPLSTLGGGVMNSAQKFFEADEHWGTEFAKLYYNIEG

Molecular target: EsaD_(1-477)-his (Staphylococcus aureus) (UniProt Q2G179)
Experiment: pull-down + SEC

Substance | binding
EsxC (from UniProt Q2G183) | binds
EsxD (from UniProt Q2G180) | binds
